From PubChem BioAssay AID1671190 (National Center for Advancing Translational Sciences (NCATS), 2021)
Out of some 580,000 compounds screened, about 6,100 (1.1%) were called active. The shares of active, inactive and inconclusive entries below differ from those in the screen. Calls come from the whole dose curve; as a rule, active = well fitted inhibition curve with a large enough effect; inconclusive = small, poorly fitted or top-dose-only effect, or another doubt; inactive = no such curve, though single readings can be large or run the other way. Potencies of inconclusive entries are doubtful fits and often do not repeat.
% is set by controls: 0 for no effect and ±100 for the full control effect; potency is the fitted concentration of half-maximal effect.

Chains of the proteins cited; added tags and fusions are not shown. Lines headed by an entry give the natural chain unless they say otherwise; changes in a name come on top.
UniProt P18054: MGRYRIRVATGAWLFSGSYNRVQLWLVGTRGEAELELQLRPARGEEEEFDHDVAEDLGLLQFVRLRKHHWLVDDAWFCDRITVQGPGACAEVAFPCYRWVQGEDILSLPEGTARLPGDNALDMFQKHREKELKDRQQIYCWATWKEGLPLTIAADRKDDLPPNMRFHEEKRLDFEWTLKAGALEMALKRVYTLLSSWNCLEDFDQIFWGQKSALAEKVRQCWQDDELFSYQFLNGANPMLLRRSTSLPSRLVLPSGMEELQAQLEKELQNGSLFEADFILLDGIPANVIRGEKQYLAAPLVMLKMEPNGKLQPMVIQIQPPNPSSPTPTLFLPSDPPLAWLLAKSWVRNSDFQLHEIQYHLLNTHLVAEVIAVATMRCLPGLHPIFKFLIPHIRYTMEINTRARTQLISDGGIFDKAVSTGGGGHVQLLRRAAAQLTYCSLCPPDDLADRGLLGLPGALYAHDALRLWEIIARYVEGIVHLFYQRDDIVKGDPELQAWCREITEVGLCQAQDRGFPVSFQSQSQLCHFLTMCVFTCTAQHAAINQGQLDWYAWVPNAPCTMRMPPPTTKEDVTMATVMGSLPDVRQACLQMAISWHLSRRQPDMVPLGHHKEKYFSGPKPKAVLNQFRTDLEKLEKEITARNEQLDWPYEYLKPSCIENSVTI

Each molecule was assayed against Polyunsaturated fatty acid lipoxygenase ALOX12 (Homo sapiens) (UniProt P18054) (assay: Primary qHTS assay for inhibitors of human arachidonate 12S-lipoxygenase (ALOX12): Round 2). Details: purified 12hLO, xylenol orange hydroperoxide absorbance; activity change, negative = inhibition: at 108 µM (top of the series) unless noted.
How it was run: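 Purified human 12hLO at 150 nM in 25 mM Hepes, 0.01% Triton X-100, pH 7.0, preincubated 15 min at room temperature with compound. Reaction started with 40 uM arachidonic acid, 30 min at room temperature. Hydroperoxide measured by Fe-xylenol orange, 573/405 nm absorbance ratio.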
For `CCOc1cc(/C=C2\SC(=Nc3ccc(CC)cc3)NC2=O)ccc1OCC(=O)O`, the Potency was inconclusive: 50.1 µM [inhibitor, partial curve, poor fit].
`CCOC(=O)/C=c1\s/c(=C\c2ccc(C(=O)OC)cc2)c(=O)n1CC(=O)Nc1ccccc1` was tested, and the “activity change, negative = inhibition” value was inactive: -1.95%.
With `CC(Sc1nc(N)cc(N)n1)C(=O)c1ccc(Cl)cc1` (stereo unspecified) the Potency was inconclusive: 50.1 µM [inhibitor, partial curve, poor fit].
In the case of `O=C(CSc1nnc(-c2cccc(S(=O)(=O)N3CCCC3)c2)n1-c1ccccc1)Nc1ccc(C(=O)O)cc1`, the “activity change, negative = inhibition” value is reported as inactive: -16.6%.
`Fc1cccc(CSc2c[nH]c3ccccc23)c1` was tested, and the Potency was inconclusive: 63.1 µM [inhibitor, partial curve, poor fit].
`O=C(O)c1sc2cc(C(F)(F)F)cnc2c1-c1ccccn1` was tested, and the Potency was inconclusive: 44.7 µM [inhibitor, partial curve, poor fit].
With `Cn1c(SCC(=O)NCc2ccc3c(c2)OCO3)nc2scc(-c3cccs3)c2c1=O` the “activity change, negative = inhibition” value was inactive: 22.1%.
With `CC1CCCC(C)N1/N=C/c1ccccc1F` (stereo unspecified) the Potency was inconclusive: 3.98 µM [inhibitor, full curve, poor fit].
In the case of `CC(C)N1CC(C(=O)Nc2nc3c(s2)CCC3)CC1=O` (stereo unspecified), the Potency is reported as inconclusive: 112 µM [inhibitor, single point].
`CC(=O)Oc1[nH]c(=O)c2cccc3c2c1CCC3` was tested, and the Potency was inconclusive: 28.2 µM [inhibitor, partial curve, poor fit].
For `FC(F)(F)c1ccc(N2C3CCC2CN(Cc2cccc(-c4cccnc4)c2)C3)cc1`, the activity change, negative = inhibition was inactive: 8.34% [at 6.33 µM].
With `O=C(CN1CCN(c2ncc(C(F)(F)F)cc2Cl)CC1)NCCNc1ncc(C(F)(F)F)cc1Cl` the Potency was inconclusive: 44.7 µM [inhibitor, single point].
With `COCCCn1c(C)cnc1C1CCN(C(=O)Nc2ccc(C)c(C)c2)C1` (stereo unspecified) the Potency was inconclusive: 10 µM [inhibitor, partial curve, poor fit].
With `O=C(Cc1ccccc1[N+](=O)[O-])c1ccc2c(c1)OCO2` the Potency was inconclusive: 35.5 µM [inhibitor, partial curve].
`Oc1ccccc1N=Cc1c(O)ccc2oc3c(c12)CCCC3` was tested, and the Potency was inconclusive: 44.7 µM [inhibitor, partial curve, poor fit].
In the case of `Cc1cnc(NC(=O)C2CC(=O)N(c3cccc(Cl)c3)C2)s1` (stereo unspecified), the “activity change, negative = inhibition” value is reported as inactive: 0%.
For `CCN(C(=O)c1cccc(S(=O)(=O)N(C)C)c1)C12CC3CC(CC(C3)C1)C2`, the “activity change, negative = inhibition” value was inactive: 264%.
With `COc1cc(OC)c(OC)cc1/C=C1\CC(C)C/C(=C\c2cc(OC)c(OC)cc2OC)C1=O` (stereo unspecified) the Potency was inconclusive: 50.1 µM [inhibitor, partial curve, poor fit].
With `CCCOC(=O)c1cccc(Nc2nc(-c3cccnc3)nc3ccccc23)c1` the Potency was inconclusive: 44.7 µM [inhibitor, partial curve, poor fit].
In the case of `CCOc1ccccc1Nc1nc2ccc(C)cc2n2cnnc12`, the “activity change, negative = inhibition” value is reported as inactive: 8.3%.
`S=C1NC[C@H](c2ccccc2)N1CC1CCCCC1` was tested, and the Potency was inconclusive: 44.7 µM [inhibitor, partial curve, poor fit].
With `Cc1oc(-c2cccs2)nc1CC(=O)Nc1ccccc1Cc1ccccc1` the Potency was inconclusive: 126 µM [inhibitor, partial curve, poor fit].
In the case of `Cc1ccc(NC(=O)c2cccc(C(=O)Nc3ccc(C)cc3C(=O)O)c2)c(C(=O)O)c1`, the Potency is reported as inconclusive: 79.4 µM [inhibitor, single point].
With `COc1ccc([N+](=O)[O-])cc1NCc1ccccc1C` the Potency was inconclusive: 3.55 µM [inhibitor, full curve, poor fit].
With `Cc1ccccc1NC(=O)Cn1nc(-c2ccc(F)cc2)c2cnc3ccccc3c21` the Potency was inconclusive: 112 µM [inhibitor, partial curve, poor fit].
For `CC1(C)NC(=O)N(CCOCCOc2c(Cl)cc(Cl)cc2Cl)C1=O`, the Potency was inconclusive: 35.5 µM [inhibitor, partial curve, poor fit].
For `CCOC(=O)N1CCN(C(=O)c2cc3occc3n2Cc2ccccc2)CC1`, the Potency was inconclusive: 89.1 µM [inhibitor, partial curve, poor fit].
For `CC(C)(N)C(=O)N1CCN(c2nc(-c3ccccc3)nc3c2CCC3)CC1`, the “activity change, negative = inhibition” value was inactive: 14.4%.
In the case of `Clc1cccc(CNc2ccn3nc(-c4ccco4)cc3n2)c1`, the Potency is reported as inconclusive: 44.7 µM [inhibitor, partial curve, poor fit].
With `COc1ccc([C@H]2/C=C\CN(C(=O)c3ccccc3)[C@@H](C)C(=O)N2Cc2ccc(F)cc2)cc1` the “activity change, negative = inhibition” value was inactive: 9.49%.
For `O=C1/C(=C/c2ccccc2Br)Cc2ccccc21`, the Potency was inconclusive: 35.5 µM [inhibitor, partial curve, poor fit].
In the case of `CC(=O)N1CCC2(CC1)CN(Cc1ccc(C#N)cc1)C2`, the Potency is reported as inconclusive: 25.1 µM [inhibitor, single point].
With `CCOc1ccc(-c2nc3scc(-c4cccs4)c3c(=O)[nH]2)cc1` the “activity change, negative = inhibition” value was inactive: -1.12%.
For `COc1ccc(NC(=O)C2(C)Cc3c(-c4ccc5c(c4)OCO5)ccnc3O2)cc1OC` (stereo unspecified), the Potency was inconclusive: 0.282 µM [inhibitor, full curve, poor fit].
For `CC(C)(C)NC(=O)CSc1ncc(-c2cccc(Br)c2)o1`, the Potency was inconclusive: 6.31 µM [inhibitor, full curve].
With `COc1cccc(Oc2coc3cc(OC(=O)c4ccccc4Br)ccc3c2=O)c1` the Potency was inconclusive: 1 µM [inhibitor, full curve, poor fit].
For `Cc1ccccc1C(=O)NC(=S)NCCc1ccccc1`, the Potency was active: 28.2 µM.
In the case of `COc1ccccc1/C=C1/C(=O)N(c2ccccc2)N=C1C`, the Potency is reported as inconclusive: 39.8 µM [inhibitor, partial curve, poor fit].
With `Cc1ccc(C(=O)Nc2c(-c3ccccc3)[nH][nH]c2=O)cc1` the Potency was inconclusive: 44.7 µM [inhibitor, partial curve, poor fit].
`O=C(OCc1csc(-c2ccccc2)n1)c1ccc(S(=O)(=O)N2CCOCC2)cc1` was tested, and the “activity change, negative = inhibition” value was inactive: 2.54%.
For `CCCC(=O)OC[C@@H](OC(=O)CCC)[C@@H](OC(=O)CCC)[C@H](Cn1c2nc(=O)[nH]c(=O)c-2nc2cc(C)c(C)cc21)OC(=O)CCC`, the Potency was inconclusive: 100 µM [inhibitor, single point].
